Measurements: article PMC5898902
Results are given in words; binding and its absence hold for the method and conditions named. Binding seen in cells or lysates may run through a third protein. Some entries that bind do so weakly or less than the wild type.

The chains behind the UniProt entries cited, without tags or fusion partners. Residues count along the entry.
UniProt S8F761, residues 243-269: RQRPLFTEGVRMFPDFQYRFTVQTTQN
UniProt P25705, residues 44-553: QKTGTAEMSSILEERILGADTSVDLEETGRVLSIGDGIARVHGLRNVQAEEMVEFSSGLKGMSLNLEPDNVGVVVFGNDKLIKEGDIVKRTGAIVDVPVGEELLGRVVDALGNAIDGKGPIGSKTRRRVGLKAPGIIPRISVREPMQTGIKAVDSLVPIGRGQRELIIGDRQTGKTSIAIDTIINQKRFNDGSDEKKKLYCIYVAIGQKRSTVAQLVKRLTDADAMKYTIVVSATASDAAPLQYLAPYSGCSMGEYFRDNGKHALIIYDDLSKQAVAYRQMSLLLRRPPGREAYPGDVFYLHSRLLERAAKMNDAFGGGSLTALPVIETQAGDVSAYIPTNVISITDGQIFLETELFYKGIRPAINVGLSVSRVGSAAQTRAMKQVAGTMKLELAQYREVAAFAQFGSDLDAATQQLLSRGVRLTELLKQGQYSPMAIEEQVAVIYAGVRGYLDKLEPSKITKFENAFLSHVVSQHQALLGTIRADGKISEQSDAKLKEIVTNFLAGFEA

Target: GST-GRA8 C-terminal domain (aa 243–269), expressed in 293T cells (Toxoplasma gondii) (UniProt S8F761)
Experiment: pull-down; 293T cells 48 h after co-transfection of mammalian GST fusions (GST-GRA8 constructs with V5-ATP5A1; GST-ATP5A1 constructs with Flag-GRA8); GST pull down, IB with αV5 or αFlag

For “V5-ATP5A1 (full length), expressed in 293T cells (from UniProt P25705 44-553)”, the binding was “binds weakly”.
